In the supplement of paper PMC12067093, “Discovery and optimisation of a covalent ligand for TRIM25 and its application to targeted protein ubiquitination” (Chemical Science, 2025):
The other results are listed elsewhere or left out.

Chains of the proteins cited; added tags and fusions are not shown. Lines headed by an entry give the natural chain unless they say otherwise; changes in a name come on top.
UniProt O75170: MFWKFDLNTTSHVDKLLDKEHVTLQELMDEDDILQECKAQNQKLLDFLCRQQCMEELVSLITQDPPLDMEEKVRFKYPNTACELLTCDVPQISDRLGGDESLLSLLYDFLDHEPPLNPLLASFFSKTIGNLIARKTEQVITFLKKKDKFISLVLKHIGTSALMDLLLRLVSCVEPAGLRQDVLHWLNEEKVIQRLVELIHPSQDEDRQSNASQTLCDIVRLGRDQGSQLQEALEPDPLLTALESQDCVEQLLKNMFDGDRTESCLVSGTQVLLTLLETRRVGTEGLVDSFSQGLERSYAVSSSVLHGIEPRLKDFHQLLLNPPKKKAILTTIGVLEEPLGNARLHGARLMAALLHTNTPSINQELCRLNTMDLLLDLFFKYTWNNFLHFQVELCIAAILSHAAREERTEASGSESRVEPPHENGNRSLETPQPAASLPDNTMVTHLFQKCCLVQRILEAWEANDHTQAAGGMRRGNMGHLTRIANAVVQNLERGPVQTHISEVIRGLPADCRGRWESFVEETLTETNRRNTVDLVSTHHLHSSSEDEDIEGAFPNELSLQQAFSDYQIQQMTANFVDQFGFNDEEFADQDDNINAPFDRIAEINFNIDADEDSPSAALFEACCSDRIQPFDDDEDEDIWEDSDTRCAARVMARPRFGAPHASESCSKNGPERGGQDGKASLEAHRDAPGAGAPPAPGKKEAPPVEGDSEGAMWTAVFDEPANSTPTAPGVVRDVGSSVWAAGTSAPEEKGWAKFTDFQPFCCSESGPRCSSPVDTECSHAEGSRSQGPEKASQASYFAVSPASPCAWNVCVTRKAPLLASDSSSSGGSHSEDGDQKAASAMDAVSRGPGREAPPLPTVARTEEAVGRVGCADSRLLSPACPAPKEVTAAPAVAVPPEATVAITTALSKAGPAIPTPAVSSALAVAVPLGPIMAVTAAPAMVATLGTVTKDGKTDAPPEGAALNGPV
UniProt Q9HCU5: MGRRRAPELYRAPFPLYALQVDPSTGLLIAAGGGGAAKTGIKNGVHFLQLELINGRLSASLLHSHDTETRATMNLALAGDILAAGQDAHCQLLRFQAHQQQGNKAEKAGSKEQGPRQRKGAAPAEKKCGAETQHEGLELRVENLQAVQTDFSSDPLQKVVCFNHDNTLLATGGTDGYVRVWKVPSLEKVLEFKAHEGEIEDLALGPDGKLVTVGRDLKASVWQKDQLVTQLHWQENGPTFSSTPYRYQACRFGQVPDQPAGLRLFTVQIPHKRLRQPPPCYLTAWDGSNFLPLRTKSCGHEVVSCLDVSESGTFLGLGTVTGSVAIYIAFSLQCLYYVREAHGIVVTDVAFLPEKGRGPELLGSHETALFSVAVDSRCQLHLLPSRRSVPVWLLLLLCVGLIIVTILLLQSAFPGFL
UniProt P63151: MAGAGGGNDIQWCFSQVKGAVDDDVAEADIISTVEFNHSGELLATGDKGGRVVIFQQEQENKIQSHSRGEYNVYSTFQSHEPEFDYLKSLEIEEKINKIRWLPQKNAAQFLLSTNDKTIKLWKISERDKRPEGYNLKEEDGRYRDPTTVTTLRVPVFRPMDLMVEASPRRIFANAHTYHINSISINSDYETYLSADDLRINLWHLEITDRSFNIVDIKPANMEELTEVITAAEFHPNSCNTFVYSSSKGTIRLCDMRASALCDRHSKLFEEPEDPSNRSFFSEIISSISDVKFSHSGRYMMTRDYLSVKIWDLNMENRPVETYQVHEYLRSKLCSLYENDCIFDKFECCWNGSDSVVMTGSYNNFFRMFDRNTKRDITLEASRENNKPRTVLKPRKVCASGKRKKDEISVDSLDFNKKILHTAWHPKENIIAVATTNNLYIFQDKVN
UniProt Q8TCU6, whole entry, looked up: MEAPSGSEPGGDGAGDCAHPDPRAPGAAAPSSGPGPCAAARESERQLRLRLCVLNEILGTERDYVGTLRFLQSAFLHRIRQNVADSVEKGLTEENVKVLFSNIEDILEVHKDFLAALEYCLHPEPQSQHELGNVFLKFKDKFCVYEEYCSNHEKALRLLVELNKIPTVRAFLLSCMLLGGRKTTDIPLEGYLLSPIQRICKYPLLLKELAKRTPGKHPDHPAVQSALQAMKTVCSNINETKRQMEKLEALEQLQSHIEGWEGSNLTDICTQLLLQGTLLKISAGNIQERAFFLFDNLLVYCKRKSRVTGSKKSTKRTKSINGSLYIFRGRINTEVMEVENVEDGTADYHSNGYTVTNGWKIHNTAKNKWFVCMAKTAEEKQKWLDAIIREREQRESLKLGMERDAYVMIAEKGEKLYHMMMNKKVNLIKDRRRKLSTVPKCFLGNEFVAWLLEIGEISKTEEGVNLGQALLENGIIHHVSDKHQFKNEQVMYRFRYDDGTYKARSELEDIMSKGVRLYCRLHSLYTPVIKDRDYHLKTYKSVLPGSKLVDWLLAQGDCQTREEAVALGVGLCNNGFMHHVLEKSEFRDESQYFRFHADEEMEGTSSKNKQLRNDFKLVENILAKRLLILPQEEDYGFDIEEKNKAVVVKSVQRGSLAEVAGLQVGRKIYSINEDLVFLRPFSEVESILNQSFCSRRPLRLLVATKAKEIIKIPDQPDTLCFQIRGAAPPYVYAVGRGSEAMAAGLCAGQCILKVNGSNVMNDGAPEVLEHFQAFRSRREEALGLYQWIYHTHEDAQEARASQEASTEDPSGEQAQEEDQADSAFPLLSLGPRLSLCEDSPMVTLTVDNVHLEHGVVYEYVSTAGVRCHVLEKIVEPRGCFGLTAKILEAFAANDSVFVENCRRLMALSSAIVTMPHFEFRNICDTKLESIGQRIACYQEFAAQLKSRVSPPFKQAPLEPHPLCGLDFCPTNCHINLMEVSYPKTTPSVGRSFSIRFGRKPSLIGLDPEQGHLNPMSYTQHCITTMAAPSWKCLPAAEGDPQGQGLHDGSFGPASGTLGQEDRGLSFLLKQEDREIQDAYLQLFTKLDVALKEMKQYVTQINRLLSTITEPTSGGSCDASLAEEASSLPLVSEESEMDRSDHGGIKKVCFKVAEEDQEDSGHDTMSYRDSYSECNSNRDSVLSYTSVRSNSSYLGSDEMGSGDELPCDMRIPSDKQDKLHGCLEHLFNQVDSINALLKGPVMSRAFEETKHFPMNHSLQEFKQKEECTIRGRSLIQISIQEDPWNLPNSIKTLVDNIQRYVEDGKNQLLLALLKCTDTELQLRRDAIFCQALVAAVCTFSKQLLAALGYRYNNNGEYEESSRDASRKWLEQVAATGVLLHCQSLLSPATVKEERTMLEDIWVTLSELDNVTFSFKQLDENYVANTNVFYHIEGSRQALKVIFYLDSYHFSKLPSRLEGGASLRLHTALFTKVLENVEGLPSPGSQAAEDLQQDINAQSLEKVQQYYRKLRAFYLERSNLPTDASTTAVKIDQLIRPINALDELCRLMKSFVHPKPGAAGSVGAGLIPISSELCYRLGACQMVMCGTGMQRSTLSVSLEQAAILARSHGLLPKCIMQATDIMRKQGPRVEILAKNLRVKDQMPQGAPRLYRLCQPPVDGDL
UniProt P62714, whole entry: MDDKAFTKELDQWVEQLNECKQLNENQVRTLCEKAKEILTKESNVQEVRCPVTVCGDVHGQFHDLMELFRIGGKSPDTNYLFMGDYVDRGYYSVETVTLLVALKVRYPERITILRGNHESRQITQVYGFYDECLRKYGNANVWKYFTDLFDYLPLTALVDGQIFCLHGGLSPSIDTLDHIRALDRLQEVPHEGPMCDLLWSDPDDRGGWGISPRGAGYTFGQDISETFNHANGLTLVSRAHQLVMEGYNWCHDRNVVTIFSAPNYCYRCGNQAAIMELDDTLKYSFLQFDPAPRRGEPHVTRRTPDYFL
UniProt P48147: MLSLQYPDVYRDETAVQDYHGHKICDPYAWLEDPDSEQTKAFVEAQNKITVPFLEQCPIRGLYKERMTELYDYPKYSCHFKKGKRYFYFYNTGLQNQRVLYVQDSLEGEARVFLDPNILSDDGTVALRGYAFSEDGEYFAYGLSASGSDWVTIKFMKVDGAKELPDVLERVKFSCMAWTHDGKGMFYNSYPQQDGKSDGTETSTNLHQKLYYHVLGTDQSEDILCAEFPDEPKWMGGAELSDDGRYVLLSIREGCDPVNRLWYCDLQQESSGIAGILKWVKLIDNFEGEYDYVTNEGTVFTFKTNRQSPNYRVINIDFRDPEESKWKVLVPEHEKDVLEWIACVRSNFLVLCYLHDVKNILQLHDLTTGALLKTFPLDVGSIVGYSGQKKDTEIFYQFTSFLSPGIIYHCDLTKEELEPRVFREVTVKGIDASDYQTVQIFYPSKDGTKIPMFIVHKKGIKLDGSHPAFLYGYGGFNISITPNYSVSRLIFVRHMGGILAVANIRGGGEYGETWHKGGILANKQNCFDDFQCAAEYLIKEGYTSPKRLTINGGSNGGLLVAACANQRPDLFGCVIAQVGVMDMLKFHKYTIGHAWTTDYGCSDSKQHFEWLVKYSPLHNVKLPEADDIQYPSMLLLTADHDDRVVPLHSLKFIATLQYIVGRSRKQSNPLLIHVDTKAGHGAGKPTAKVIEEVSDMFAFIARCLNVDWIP
UniProt O15355: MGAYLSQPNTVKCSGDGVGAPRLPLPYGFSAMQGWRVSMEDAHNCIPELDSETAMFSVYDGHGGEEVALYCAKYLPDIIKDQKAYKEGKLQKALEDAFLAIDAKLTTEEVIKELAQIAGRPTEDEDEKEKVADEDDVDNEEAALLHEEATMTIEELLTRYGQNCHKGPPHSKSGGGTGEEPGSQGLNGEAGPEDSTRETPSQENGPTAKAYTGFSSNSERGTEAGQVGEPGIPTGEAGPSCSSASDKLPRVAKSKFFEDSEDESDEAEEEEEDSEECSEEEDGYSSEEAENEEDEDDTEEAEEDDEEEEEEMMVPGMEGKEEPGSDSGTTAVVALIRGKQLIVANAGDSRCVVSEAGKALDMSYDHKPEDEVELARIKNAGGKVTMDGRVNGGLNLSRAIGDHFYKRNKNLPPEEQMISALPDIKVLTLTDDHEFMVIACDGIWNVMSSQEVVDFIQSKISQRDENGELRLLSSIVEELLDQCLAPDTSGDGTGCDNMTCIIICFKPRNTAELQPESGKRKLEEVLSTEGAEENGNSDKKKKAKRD
UniProt P32119: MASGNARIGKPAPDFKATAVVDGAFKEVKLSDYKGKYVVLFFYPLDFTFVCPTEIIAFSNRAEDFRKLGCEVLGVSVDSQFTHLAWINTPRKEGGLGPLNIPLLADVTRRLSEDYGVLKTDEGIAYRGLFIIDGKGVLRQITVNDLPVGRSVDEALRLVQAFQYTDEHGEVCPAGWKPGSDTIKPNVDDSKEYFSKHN
UniProt Q9ULR3: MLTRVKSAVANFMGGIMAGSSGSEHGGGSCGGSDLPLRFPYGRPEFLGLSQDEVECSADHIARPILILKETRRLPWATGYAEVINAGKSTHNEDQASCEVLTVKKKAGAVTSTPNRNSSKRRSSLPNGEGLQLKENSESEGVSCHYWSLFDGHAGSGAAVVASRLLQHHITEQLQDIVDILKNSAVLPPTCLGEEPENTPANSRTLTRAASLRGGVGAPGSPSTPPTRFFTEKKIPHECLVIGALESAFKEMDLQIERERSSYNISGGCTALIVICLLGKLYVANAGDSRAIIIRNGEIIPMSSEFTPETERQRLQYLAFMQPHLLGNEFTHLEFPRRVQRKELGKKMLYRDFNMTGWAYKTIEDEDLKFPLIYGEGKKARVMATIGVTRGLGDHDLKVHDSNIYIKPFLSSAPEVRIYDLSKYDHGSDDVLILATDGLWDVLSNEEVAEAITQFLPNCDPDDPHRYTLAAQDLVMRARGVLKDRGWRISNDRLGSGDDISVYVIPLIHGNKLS
UniProt Q9Y570: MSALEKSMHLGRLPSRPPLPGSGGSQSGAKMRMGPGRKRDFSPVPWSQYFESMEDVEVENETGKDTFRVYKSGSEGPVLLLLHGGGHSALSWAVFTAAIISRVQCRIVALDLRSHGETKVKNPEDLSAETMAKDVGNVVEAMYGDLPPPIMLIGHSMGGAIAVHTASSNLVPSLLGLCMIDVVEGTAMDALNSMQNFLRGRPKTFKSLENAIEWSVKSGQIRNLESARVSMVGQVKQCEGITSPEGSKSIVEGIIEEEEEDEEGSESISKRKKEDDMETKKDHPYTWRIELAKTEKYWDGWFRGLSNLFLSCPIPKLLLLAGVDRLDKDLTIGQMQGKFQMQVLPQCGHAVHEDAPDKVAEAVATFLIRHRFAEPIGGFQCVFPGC
UniProt Q13162: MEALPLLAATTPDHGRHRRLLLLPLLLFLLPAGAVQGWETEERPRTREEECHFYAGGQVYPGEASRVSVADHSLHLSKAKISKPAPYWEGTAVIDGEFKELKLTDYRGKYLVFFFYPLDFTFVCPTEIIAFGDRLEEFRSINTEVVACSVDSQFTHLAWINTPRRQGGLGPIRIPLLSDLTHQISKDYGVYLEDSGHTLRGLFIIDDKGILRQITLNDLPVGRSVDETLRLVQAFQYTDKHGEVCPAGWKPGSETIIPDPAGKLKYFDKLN

Compound: Cc1cc(ccc1-c1ccccc1)C(=O)N1CCCN(CC1)C(=O)CCl [compound 10]
Assay: probe-labelled cysteine peptide fold change vs DMSO (competition) (log2 fold change); higher = less target engagement (more negative = stronger competition)
Conditions: 10 µM; THP-1; incubation time: 4 h
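Also: competitive profiling in live THP-1 cells: cysteine peptides tagged with an iodoacetamide desthiobiotin (IA-DTB) probe, intensity after compound treatment relative to DMSO-treated cells.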

Row | Target | probe-labelled cysteine peptide fold change
1 | PPP6R2_O75170_665_FGAPHASESCSK (UniProt O75170) | -0.151
2 | PPP1R9B_Q96SB3_270_CPAGQQPPQHR (UniProt Q96SB3) | -0.0566
3 | PREB_Q9HCU5_128_CGAETQHEGLELR (UniProt Q9HCU5) | 0.0177
4 | PPP1R10_Q96QC0_463_VPWVCPR (UniProt Q96QC0) | -0.0231
5 | PPP2R2A_P63151_13_AGAGGGNDIQWCFSQVK (UniProt P63151) | -0.147
6 | PPM1B_O75688_272_LEVSDDLENVCNWVVDTCLHK (UniProt O75688) | 0.126
7 | PREX1_Q8TCU6_867_CHVLEK (UniProt Q8TCU6) | 0.0843
8 | PPP2CB_P62714_20_ELDQWVEQLNECK (UniProt P62714) | -0.0338
9 | PREP_P48147_25_ICDPYAWLEDPDSEQTK (UniProt P48147) | 0.89
10 | PPM1G_O15355_351_CVVSEAGK (UniProt O15355) | -0.178
11 | PPWD1_Q96BP3_287_AYPTSVCFSPDGK (UniProt Q96BP3) | 0.0829
12 | PRDX2_P32119_172_LVQAFQYTDEHGEVCPAGWK (UniProt P32119) | -0.113
13 | PPP1R18_Q6NYC8_611_ALIVDESCR (UniProt Q6NYC8) | -0.365
14 | PPM1H_Q9ULR3_239_IPHECLVIGALESAFK (UniProt Q9ULR3) | -0.0964
15 | PREX1_Q8TCU6_52_LCVLNEILGTER (UniProt Q8TCU6) | 0.212
16 | PPME1_Q9Y570_312_GLSNLFLSCPIPK (UniProt Q9Y570) | 0.0321
17 | PRDX4_Q13162_51_EEECHFYAGGQVYPGEASR (UniProt Q13162) | -0.0981

Part of the list above, as comma-separated lines:
Row,Target,probe-labelled cysteine peptide fold change
7,PREX1_Q8TCU6_867_CHVLEK (UniProt Q8TCU6),0.0843
8,PPP2CB_P62714_20_ELDQWVEQLNECK (UniProt P62714),-0.0338
